Results published in PubChem BioAssay AID1347426 (Functional Genomics Laboratory (NCATS/FGL), 2020).
The campaign covered roughly 31,000 sequences. About 1,400 (4.5%) were called active.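 The calls were made as follows: active = median seed-adjusted z-score above 1 or below -1; inactive = the rest.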 This is one part of the list.

Assay: Novel Modifiers of Survival Motor Neuron (SMN) Protein: Gene Identification via Genome-wide siRNA Screen;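 also: luminescence tracks full-length SMN protein made from the SMN2 reporter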
Settings: HEK293T SMN2-luciferase reporter, siRNA knockdown, 72 h; actives lie on both sides
In short: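 Genome-wide siRNA screen (10418 genes, 3 siRNAs each, 1 pmol per well) by reverse transfection in HEK293T cells stably carrying an SMN2-luciferase reporter; luminescence after 72 hours, normalized to negative-control siRNA, log10-transformed, MAD-scored.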

| Sequence | median seed-adjusted z-score |
| --- | --- |
| GGAAUAACACGAUCGUGAATT against GAA | inactive: 0.756 |
| GAAAUCGACUCUCACCAAATT against IL18RAP | inactive: -0.681 |
| GAAGUAAAAUCUGUCGAAATT against EEF1A1 | inactive: -0.755 |
| GCAACCUGCUCGAUCUGAATT against AP1B1 | inactive: -0.161 |
| CGGUCUAUGGUGGUCCAAATT against RBM16 | inactive: 0.279 |
| GAAGAACUCGAUCAGCUAATT against MYH4 | active: -1.8 |
| CCUGUACCCUUGCAAGAAATT against PTAFR | inactive: 0.302 |
| CCAGUGUGCUCGUUACGUUTT against SLC25A33 | inactive: -0.0252 |
| GCUACAAGGAGAUCCGGAATT against CHGA | inactive: -0.0235 |
| CAAAGAAGCUUUUUCACUATT against CALM2 | inactive: 0.127 |
| GGCUUUUAGAGUACGACAATT against ZFP30 | inactive: 0.211 |
| GAGUCCCUGUUCGUACUUATT against CDK2 | inactive: -0.347 |
| GGACUUAGUAUAAUGUGAATT against NDUFA2 | inactive: -0.694 |
| GAGUAUGGAUGUUUCCGUATT against HOXC13 | inactive: -0.318 |
| GGAACUCAGUGGUCCUCAATT against ALDH3A1 | inactive: -0.486 |
| ACCUAUUGGAUGCUAAAUATT against SVOPL | inactive: 0.439 |
| CAGAUGAUAUGGUUAGUGATT against UNC13C | inactive: -0.136 |
| CACUCACACCAACCUGUGATT against GNG13 | inactive: -0.516 |
| CCACUGUGAUUGCUGUCAATT against DGAT2L4 | inactive: 0.145 |
| GGUAUGAGGUUGACUCAUUTT against IFNAR1 | inactive: 0.0327 |
| GACGUGAGCCGAUCAUUAATT against PROCA1 | inactive: -0.502 |
| CUACUUGAGUAGACGAUGATT against THAP8 | inactive: -0.872 |

| Sequence | median seed-adjusted z-score |
| --- | --- |
| GGCGGAGUAUGGAAAGUUATT against UBE2H | inactive: 0 |
| GGCGAAAUCGUGCUGAUUATT against HSD17B11 | inactive: 0.379 |
| CAGCAGCCGUGUUCACAAATT against ALDH1A3 | inactive: 0.228 |
| GUCACUAAACCAUAUGUUUTT against GLULD1 | inactive: -0.332 |
| CCUCAUCUGUUCGACCGAATT against TLK1 | inactive: -0.0133 |
| GCAACCCUCUGUUUCAGGATT against MTG1 | inactive: -0.19 |
| GUAAUUAGCUCAAACAAAATT against GNG7 | inactive: -0.205 |
| GUAACUUCCCUGAUCCAGATT against YOD1 | inactive: 0.216 |
| GGAGGCUCGUCACCAACUUTT against DERL3 | inactive: 0.043 |
| AGGCCAUGAUUCGCCCAAATT against NGFR | inactive: -0.0846 |
| GAAGGUUGAUGACCGAUUUTT against INPP5F | inactive: 0.118 |
| CAGCGAUUGGUGUGACAAATT against STX16 | inactive: -0.569 |
| GGUUAAUAGUGAUAGUUGATT against TMEM1 | inactive: -0.191 |
| GGAUUGGAUUAGAUGCAAATT against DGKH | inactive: 0.13 |
| GCUUUCACCUGAUAGAUCATT against MTF1 | inactive: -0.709 |
| CUACGACAAGGAACAGACATT against CA4 | inactive: 0.0549 |
| UGUACGACCUUGUAUCGGATT against KCNN1 | inactive: -0.347 |
| AGAUUUGACGUGUCCAUUUTT against RFPL1 | inactive: 0.195 |
| GAACUGUGCAAAUACCACATT against IFNAR2 | inactive: -0.219 |
| CCUUCGACCCAUACUAUUATT against SCN10A | inactive: -0.401 |
| GCGAGUUGUUUCUAUAGUATT against GPR22 | inactive: 0.705 |
| CAACAGCCUUCAGUCCGUGTT against GP9 | inactive: -0.88 |

| Sequence | median seed-adjusted z-score |
| --- | --- |
| CGCAAACAGUGCAACCACATT against PPP2R5B | inactive: 0.237 |
| GAACUGCCCUGAAGAUAUUTT against ERO1LB | inactive: 0.565 |
| GGAAGGACUUUGUCAAUAATT against AFG3L2 | inactive: 0.117 |
| CCGCUCUACGUGUACCUAUTT against GMPR2 | inactive: 0.232 |
| GCCCAGAAGAGGUCACCUATT against CYP4F8 | inactive: 0.756 |
| CCCUGGUCUUCAUGGAUGATT against GCAT | inactive: 0.672 |
| CCUCAUGCACUGUUGAUUATT against IL6ST | inactive: -0.518 |
| UGAUUCUUGUGGUUCGAAATT against PTRH2 | inactive: 0.0467 |
| UGGACAGCCUGUCAACUUATT against NXPH3 | inactive: 0.056 |
| GGGACACGCUAAAAGGAGATT against GNB4 | inactive: 0.015 |
| ACCGAGUUCAGCUCCGUAATT against KCNK7 | inactive: 0.0523 |
| GUGGUGCAGUUUUUCGUAATT against THOC2 | active: -1.22 |
| AGUCCCUCAUUAUCAUCAATT against LRRC15 | inactive: -0.723 |
| CGGUGGAUUCUGAAAUGCATT against KRT35 | inactive: -0.1 |
| CAGUCUACCUGUUUGACCATT against LMTK2 | inactive: -0.565 |
| GUCGUGUGAUUGAAGCCUATT against MUC4 | inactive: 0.128 |
| CGGCCGGGAGUUUUUCGUATT against DDAH2 | inactive: -0.301 |
| CACUAUCAGUUGGAACAGATT against CD36 | inactive: -0.000845 |
| GGUGUUAACCAAACCGUUATT against SEPHS2 | inactive: -0.392 |
| AGACCAUGAUGGGCAUAGATT against B3GALT5 | inactive: 0.144 |
| GCCCUGUUUUUAUACACUUTT against DDX58 | inactive: -0.113 |
| GUAAGCUAAAUGUAUCUUATT against GSG2 | inactive: 0.804 |

| Sequence | median seed-adjusted z-score |
| --- | --- |
| CAAGGUCAAGUGCGAGAAATT against MAFB | inactive: 0.674 |
| GUGUCGAUAUUGUCAUGAATT against TPT1 | inactive: 0.236 |
| GGACCUCAGGGAUUAAUGATT against FOLR3 | inactive: 0 |
| GCAGGAUUGAAGGAGUUCATT against ERAF | inactive: 0.0453 |
| CGCGCCUCAUUAAACCAAATT against CSK | inactive: 0.993 |
| GAUAUACCCUGGAAAGUCUTT against CCNA2 | inactive: 0.136 |
| GGAUACAAGUGUCGAGGUUTT against PXDNL | inactive: -0.186 |
| CCAAGUUUUGCUCCACAAATT against ZNF274 | inactive: 0.452 |
| GCCGAAGACUAAUCAUUGUTT against IL18R1 | inactive: -0.206 |
| CAGAAGCUUUAUGAACGAATT against SAP30BP | inactive: -0.257 |
| GAAUCCUGAUGGGUAUGAATT against CPD | inactive: -0.198 |
| GAUUCGACAAGGCAAUACATT against RDX | inactive: 0.123 |
| UGUUCAUUCUGGUACCACATT against STYX | inactive: 0.694 |
| GCUUGUCGAUAUAUAGUAUTT against DCP1A | inactive: 0.361 |
| GGAGUACGCUGAAGAAGGUTT against RECQL5 | inactive: 0 |
| CAGCAGACCUCAUUCCCUUTT against BEST4 | inactive: -0.207 |
| GCUGGAUCAUAUACAUGCATT against CNTN6 | inactive: 0 |
| GCUUUGAAACUACAGAUGATT against HNRNPA3 | inactive: 0.915 |
| GGAGUGCAGUCAUCACGUUTT against NMI | inactive: 0.982 |
| GGCUGGCUGAUAAAUUGUUTT against ZNF778 | inactive: 0.0459 |
| CAGGUACUCUAGAUGCUGATT against GPR179 | inactive: -0.513 |
| CCUCUUCCGACAUCAGAAATT against ZNF275 | inactive: 0.315 |

Copied from the list.
median seed-adjusted z-score, CAAGGUCAAGUGCGAGAAATT against MAFB is entered as inactive: 0.674
median seed-adjusted z-score, GAUUCGACAAGGCAAUACATT against RDX is entered as inactive: 0.123
median seed-adjusted z-score, GGCUGGCUGAUAAAUUGUUTT against ZNF778 is entered as inactive: 0.0459
median seed-adjusted z-score, CCUCUUCCGACAUCAGAAATT against ZNF275 is entered as inactive: 0.315
median seed-adjusted z-score, GCUGGAUCAUAUACAUGCATT against CNTN6 is entered as inactive: 0
median seed-adjusted z-score, GCUUUGAAACUACAGAUGATT against HNRNPA3 is entered as inactive: 0.915
median seed-adjusted z-score, GGACCUCAGGGAUUAAUGATT against FOLR3 is entered as inactive: 0

Carrying on:

| Sequence | median seed-adjusted z-score |
| --- | --- |
| CCCACCAUGUUACAAGACATT against POLR2G | active: -4.19 |
| CAGUCCAGAUCGUCAACAATT against PTOV1 | inactive: 0.115 |
| CAAGAAAGGUAGAGAAUCATT against ZSCAN21 | inactive: 0.687 |
| CCGGAUCACCUGUUUGAAATT against PSMB3 | inactive: -0.725 |
| GGCUUUUACCCGCACCAGATT against LGI4 | inactive: -0.239 |
| CCAUCGGUGUUGACUUUAATT against RAB15 | inactive: -0.616 |
| GGAUCGAAUGGUUCAGGUUTT against OSBPL9 | inactive: -0.958 |
| AGAAGCUUCUAAUAAAUUATT against NKX2-1 | inactive: 0.185 |
| GUAUCUGGAUAGUCGUAAATT against SYPL1 | inactive: -0.457 |
| GCAACGUGCAGAUAGUCAATT against ITIH3 | inactive: 0 |
| CCAGUACCAAAGAUAAAGATT against SLC16A10 | inactive: -0.205 |
| GACCCAGUCUAUUAAAGAATT against BRCA1 | inactive: -0.0302 |
| GAUUGUUUCGGGUAUUUAUTT against HMX2 | inactive: -0.547 |
| CCUCAACCUCGAUCAAGUATT against CSF1R | inactive: 0.38 |
| GGAUCCUAAGCUUUGAUAATT against HPR | inactive: 0.237 |
| GGUAUAAUCCAGUUACCAATT against CPD | inactive: -0.198 |
| GACUGGAUCCCAACGAUUATT against PCDHA13 | inactive: -0.624 |
| GGAAUACCUCAAUAGCAUUTT against SMARCA4 | inactive: 0.223 |
| CUGUUCUCCUUAAAACGAATT against RBM34 | inactive: 0 |
| GCACCUUCCUAGUCACUCATT against HSD17B8 | inactive: 0.411 |
